Experimental data reported in article PMC10572892.
Results are given in words; binding and its absence hold for the method and conditions named. In cells and extracts the contact can be indirect. Binding calls can cover weak binding; strength is not graded here.

Chains of the proteins cited; added tags and fusions are not shown.
UniProt P35240: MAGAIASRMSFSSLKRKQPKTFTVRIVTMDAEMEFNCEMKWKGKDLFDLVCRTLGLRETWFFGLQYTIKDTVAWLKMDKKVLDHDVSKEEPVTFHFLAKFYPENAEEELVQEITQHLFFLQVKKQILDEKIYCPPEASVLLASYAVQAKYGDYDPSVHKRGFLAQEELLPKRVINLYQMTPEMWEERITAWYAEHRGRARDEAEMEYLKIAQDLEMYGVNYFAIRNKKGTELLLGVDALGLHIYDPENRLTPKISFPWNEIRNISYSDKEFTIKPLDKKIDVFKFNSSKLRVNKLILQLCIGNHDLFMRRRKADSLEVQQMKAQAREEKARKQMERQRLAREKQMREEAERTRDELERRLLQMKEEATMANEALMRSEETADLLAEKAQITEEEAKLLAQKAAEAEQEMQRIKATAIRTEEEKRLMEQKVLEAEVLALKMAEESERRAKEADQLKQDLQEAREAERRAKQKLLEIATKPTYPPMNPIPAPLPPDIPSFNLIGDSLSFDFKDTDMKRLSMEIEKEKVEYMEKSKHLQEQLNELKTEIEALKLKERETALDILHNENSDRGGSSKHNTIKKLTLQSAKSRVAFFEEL
UniProt O95835: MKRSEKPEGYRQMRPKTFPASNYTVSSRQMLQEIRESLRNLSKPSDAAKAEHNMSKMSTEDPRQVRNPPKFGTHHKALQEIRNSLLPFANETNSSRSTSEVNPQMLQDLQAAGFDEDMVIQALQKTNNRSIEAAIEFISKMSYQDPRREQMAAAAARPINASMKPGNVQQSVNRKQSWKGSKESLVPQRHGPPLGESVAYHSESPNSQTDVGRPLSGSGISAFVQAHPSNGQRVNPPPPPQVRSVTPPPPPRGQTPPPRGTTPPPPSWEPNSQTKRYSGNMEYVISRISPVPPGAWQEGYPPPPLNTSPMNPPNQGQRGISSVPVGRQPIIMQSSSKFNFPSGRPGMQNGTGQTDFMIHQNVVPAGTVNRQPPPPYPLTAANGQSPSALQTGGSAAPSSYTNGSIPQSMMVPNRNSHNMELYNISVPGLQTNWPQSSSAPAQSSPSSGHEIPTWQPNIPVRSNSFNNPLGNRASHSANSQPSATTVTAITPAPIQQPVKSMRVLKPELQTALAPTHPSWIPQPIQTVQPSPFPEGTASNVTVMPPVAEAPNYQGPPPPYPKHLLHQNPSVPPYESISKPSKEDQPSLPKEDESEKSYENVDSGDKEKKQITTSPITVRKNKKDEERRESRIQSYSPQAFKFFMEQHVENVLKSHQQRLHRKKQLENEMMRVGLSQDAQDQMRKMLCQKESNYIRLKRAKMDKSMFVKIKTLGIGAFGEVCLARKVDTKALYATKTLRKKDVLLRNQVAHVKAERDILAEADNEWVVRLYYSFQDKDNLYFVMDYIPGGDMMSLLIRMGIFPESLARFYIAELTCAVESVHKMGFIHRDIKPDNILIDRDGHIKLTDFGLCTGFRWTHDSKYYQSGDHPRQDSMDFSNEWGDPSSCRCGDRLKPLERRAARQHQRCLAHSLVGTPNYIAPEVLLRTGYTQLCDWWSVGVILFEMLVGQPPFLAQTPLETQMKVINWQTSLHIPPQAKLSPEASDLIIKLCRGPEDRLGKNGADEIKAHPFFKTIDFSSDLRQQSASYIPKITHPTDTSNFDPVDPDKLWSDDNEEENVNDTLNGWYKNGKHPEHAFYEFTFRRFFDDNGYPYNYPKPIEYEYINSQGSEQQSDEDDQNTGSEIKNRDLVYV

Experiments:
[1] = target: HA-Merlin (UniProt P35240); experiment: co-IP; HA-IP (anti-HA antibody, protein A/G PLUS-Agarose, 4 °C) from lysates of transfected HEK293 cells; lysis buffer 50 mM Tris pH 7.4, 150 mM NaCl, 1% Triton X-100; Western blot
[2] = target: HA-LATS1 (UniProt O95835); experiment: as above

binding [1]: binds | binding [2]: binds
Substance: Myc-PIP5Kγ87 (from UniProt O60331-4) (enzyme)
